In PubChem BioAssay AID328 (DTP/NCI, 2004):
The list does not hold the whole screen: it gathers tests that were run many times, whatever their T/C, doses with no T/C, and many T/C values between a quarter and a half above the control. Further doses and runs are listed elsewhere. T/C: endpoint of the treated group in % of that of the vehicle group. Some entries give survivors of the animals treated and no T/C: the source holds a T/C of zero for them, seemingly a mark for toxic or unscored doses. Some survivor counts are full or nearly so, which does not show that the dose was tolerated: survival well below the control is almost never listed, so the zero probably covers shortened survival too. Counts of survivors are from the toxicity check (mostly the fifth day) where no day follows; animals may have died later. Schedules are NCI's codes, taken here to give the interval after Q, in days (D) or hours (H), and the number of doses after X. Where survival is the endpoint, this PubChem deposit counts one and a half times the control or more as active, and values a quarter to a half above the control carry no call in these data; other NCI protocols may use other cut-offs. Marks such as (2×) give the number of equal values in this list. Some doses were run more than once; the results are listed from low to high. Some T/C values are followed by the survivors on the day toxicity was checked, most often the fifth; where none is given, no animal had died by that day.

System: BDF1 mice, P388 leukemia ip, median survival T/C
Experiment: NCI In Vivo Anticancer Drug Screen. Data for tumor model P388 Leukemia (intraperitoneal) in B6D2F1 (BDF1) mice
Conditions: T/C endpoint: median survival time, higher T/C = longer survival
How it was run: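 Mice carrying the transplantable tumour receive compound or vehicle. Survival is followed in each arm, and the treated measure is divided by the vehicle measure.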

[1] = dose: 100.0 mg/kg/injection, schedule: Q01DX009 (ip), vehicle: saline with Tween-80
[2] = dose: 200.0 mg/kg/injection, schedule: Q04DX002 (ip), vehicle: saline with Tween-80
[3] = dose: 400.0 mg/kg/injection, schedule: Q04DX002 (ip), vehicle: saline with Tween-80
[4] = dose: 100.0 mg/kg/injection, schedule: Q01DX009 (ip), vehicle: saline
[5] = dose: 400.0 mg/kg/injection, schedule: Q04DX003 (ip), vehicle: saline with Tween-80
[6] = dose: 400.0 mg/kg/injection, schedule: Q01DX009 (ip), vehicle: saline
[7] = dose: 200.0 mg/kg/injection, schedule: Q01DX009 (ip), vehicle: saline with Tween-80
[8] = dose: 400.0 mg/kg/injection, schedule: Q01DX009 (ip), vehicle: saline with Tween-80
[9] = dose: 200.0 mg/kg/injection, schedule: Q04DX003 (ip), vehicle: saline with Tween-80
[10] = dose: 100.0 mg/kg/injection, schedule: Q04DX003 (ip), vehicle: saline
[11] = dose: 200.0 mg/kg/injection, schedule: Q04DX003 (ip), vehicle: saline
[12] = dose: 25.0 mg/kg/injection, schedule: Q04DX003 (ip), vehicle: saline
[13] = dose: 50.0 mg/kg/injection, schedule: Q04DX003 (ip), vehicle: saline
[14] = dose: 100.0 mg/kg/injection, schedule: Q01DX001 (ip), vehicle: Klucel (hydroxypropylcellulose) (HPC)
[15] = dose: 200.0 mg/kg/injection, schedule: Q01DX001 (ip), vehicle: Klucel (hydroxypropylcellulose) (HPC)
[16] = dose: 200.0 mg/kg/injection, schedule: Q01DX009 (ip), vehicle: saline
[17] = dose: 33.0 mg/kg/injection, schedule: Q01DX009 (ip), vehicle: saline
[18] = dose: 25.0 mg/kg/injection, schedule: Q01DX009 (ip), vehicle: saline
[19] = dose: 50.0 mg/kg/injection, schedule: Q01DX009 (ip), vehicle: saline
[20] = dose: 200.0 mg/kg/injection, schedule: Q04DX003 (ip), vehicle: Klucel (hydroxypropylcellulose) (HPC)
[21] = dose: 400.0 mg/kg/injection, schedule: Q01DX001 (ip), vehicle: saline with Tween-80

## CCCCCCCCOC(=O)c1ccc(OP(=O)(N(C)C)N(C)C)cc1
[1]
  survivor count: 4 of 6

## O=C(Nc1nncs1)c1cccs1
[2]
  T/C: 134 % of control
[3]
  T/C: 145 % of control

## COc1cc(/C=N/NC(=O)C[n+]2ccccc2)cc(OC)c1
[4]
  survivor count: 6 of 6

## COC(=O)c1c(Cl)c(Cl)c(C(=O)OC)c(Cl)c1Cl
[5]
  T/C: 137 % of control

## CC(O)C(=O)Oc1ccccc1 (stereo unspecified)
[6]
  survivor count: 4 of 6

## C[As](C)SCC1OC2OC(C)(C)OC2C2OC(C)(C)OC12 (stereo unspecified)
[1]
  T/C: 126 and 127 % of control
[7]
  T/C: 136 [5 of 6 alive] and 141 % of control [5 of 6 alive]
[8]
  survivor count: 3 of 6

## c1ccc(-c2cc(-c3ccccc3)[s+]s2)cc1
dose: 50.0 mg/kg/injection, schedule: Q01DX009 (ip), vehicle: saline with Tween-80
  T/C: 126 % of control [5 of 6 alive]
[1]
  T/C: 126 % of control
[7]
  survivor count: 2 of 6
[9]
  T/C: 132 % of control
dose: 250.0 mg/kg/injection, schedule: Q04DX003 (ip), vehicle: saline with Tween-80
  survivor count: 2 of 6
[5]
  survivor count: 2 of 6

## O=c1[nH]cnc2c1ncn2C1OC(CF)C(O)C1O (stereo unspecified)
[10]
  survivor count: 6 of 6
[11]
  survivor count: 6 of 6
dose: 400.0 mg/kg/injection, schedule: Q04DX003 (ip), vehicle: saline
  survivor count: 6 of 6

## O=c1oc(-c2ccccc2)nc2cc(Cl)ccc12
dose: 25.0 mg/kg/injection, schedule: Q04DX003 (ip), vehicle: saline with Tween-80
  survivor count: 6 of 6

## O=C(CNC(=O)c1ccc(C(=O)NCC(=O)Nc2ccc(C3=NCCCN3)cc2)cc1)Nc1ccc(C2=NCCCN2)cc1
[12]
  T/C: 145 % of control
[13]
  T/C: 145 % of control
dose: 66.0 mg/kg/injection, schedule: Q04DX003 (ip), vehicle: saline
  T/C: 145 % of control
[14]
  T/C: 127 % of control
[15]
  T/C: 126 and 140 % of control
dose: 300.0 mg/kg/injection, schedule: Q01DX001 (ip), vehicle: Klucel (hydroxypropylcellulose) (HPC)
  T/C: 138 % of control

## CCN(CC)CCCC(C)NCCCN (stereo unspecified)
[4]
  survivor count: 6 of 6
[16]
  survivor count: 4 of 6
[6]
  survivor count: 0 of 6

## C=CCCCCCC/C=C\CCCCC
dose: 100.0 mg/kg/injection, schedule: Q01DX010 (ip), vehicle: alcohol
  T/C: 127 % of control [3 of 4 alive]
dose: 200.0 mg/kg/injection, schedule: Q01DX010 (ip), vehicle: alcohol
  survivor count: 1 of 4
dose: 400.0 mg/kg/injection, schedule: Q01DX010 (ip), vehicle: alcohol
  survivor count: 0 of 4

## CC(C)=C=CCN(C)Cc1ccccc1
[16]
  survivor count: 0 of 6

## CS(=O)(=O)OCCNC[C@@H](O)[C@@H](O)CNCCOS(C)(=O)=O
dose: 8.2 mg/kg/injection, schedule: Q01DX009 (ip), vehicle: saline
  survivor count: 6 of 6
dose: 16.5 mg/kg/injection, schedule: Q01DX009 (ip), vehicle: saline
  survivor count: 6 of 6
[12]
  T/C: 145 % of control
[17]
  survivor count: 6 of 6
[13]
  survivor count: 5 of 6
dose: 75.0 mg/kg/injection, schedule: Q04DX003 (ip), vehicle: saline
  survivor count: 5 of 6
[10]
  survivor count: 4 of 6

## CCNC(C)(C)C(SS(=O)(=O)O)c1cccs1 (stereo unspecified)
dose: 400.0 mg/kg/injection, schedule: Q01DX009 (ip), vehicle: water
  survivor count: 2 of 6

## COC(=O)c1ccc(COc2ccc([N+](=O)[O-])cc2Cl)cc1
[1]
  T/C: 130 % of control

## Cc1cc(N(C)C)cc(C)c1N=Nc1cc[n+]([O-])cc1
[7]
  survivor count: 2 of 6
[8]
  survivor count: 0 of 6

## COc1ccc(/C=C/c2ccc3ccccc3[n+]2C)c(OC)c1OC
dose: 2.5 mg/kg/injection, schedule: Q01DX009 (ip), vehicle: Klucel (hydroxypropylcellulose) (HPC)
  T/C: 125 % of control
dose: 10.0 mg/kg/injection, schedule: Q01DX009 (ip), vehicle: Klucel (hydroxypropylcellulose) (HPC)
  T/C: 143 % of control
dose: 20.0 mg/kg/injection, schedule: Q01DX009 (ip), vehicle: Klucel (hydroxypropylcellulose) (HPC)
  T/C: 136 % of control
dose: 40.0 mg/kg/injection, schedule: Q01DX009 (ip), vehicle: Klucel (hydroxypropylcellulose) (HPC)
  survivor count: 0 of 6

## C=C1C(=O)O[C@@H]2/C=C(\CO)CC/C=C(\C)C[C@H](OC(=O)C(C)CO)[C@@H]12 (stereo partly specified)
dose: 5.5 mg/kg/injection, schedule: Q01DX009 (ip), vehicle: alcohol
  T/C: 131 % of control
dose: 11.0 mg/kg/injection, schedule: Q01DX009 (ip), vehicle: alcohol
  T/C: 140 % of control
dose: 22.0 mg/kg/injection, schedule: Q01DX009 (ip), vehicle: alcohol
  survivor count: 3 of 6

## OCC[N-]CC[N-]CCO.[Cl][Co][Cl]
[18]
  T/C: 144 % of control
[19]
  T/C: 147 % of control
[4]
  survivor count: 6 of 6

## S=c1nc[nH]c2c1ncn2CN1CCOCC1
dose: 50.0 mg/kg/injection, schedule: Q01DX009 (ip), vehicle: Klucel (hydroxypropylcellulose) (HPC)
  T/C: 135 % of control
dose: 100.0 mg/kg/injection, schedule: Q01DX009 (ip), vehicle: Klucel (hydroxypropylcellulose) (HPC)
  T/C: 135 % of control
dose: 200.0 mg/kg/injection, schedule: Q01DX009 (ip), vehicle: Klucel (hydroxypropylcellulose) (HPC)
  survivor count: 3 of 6

## N#CC1CC2(CCC1=O)c1ccccc1-c1ccccc12 (stereo unspecified)
dose: 100.0 mg/kg/injection, schedule: Q04DX002 (ip), vehicle: saline with Tween-80
  survivor count: 3 of 6
[2]
  survivor count: 2 of 6
[3]
  survivor count: 0 of 6

## N#CC(C#N)=Cc1ccc(Cl)c(Cl)c1
[20]
  survivor count: 4 of 6

## CC1(C)N=C(N)N=C(N)N1c1ccc2ccccc2c1
[18]
  T/C: 135 % of control
[17]
  T/C: 131 and 145 % of control
[19]
  T/C: 145 % of control (2×)
dose: 75.0 mg/kg/injection, schedule: Q01DX009 (ip), vehicle: saline
  survivor count: 0 of 6
[10]
  survivor count: 3 of 6
[11]
  survivor count: 2 of 6

## Cc1nnc2c(Cl)nccn12
[21]
  survivor count: 0 of 6

## C1=CCONC1
[5]
  survivor count: 0 of 6

## CCOC(=O)C(C(=O)OCC)=C(C)C
[1]
  T/C: 130 % of control
[7]
  T/C: 140 % of control

## CN(C)CCNC(=O)Cc1cc(O)c2c(c1O)C(=O)c1ccccc1C2=O
dose: 200.0 mg/kg/injection, schedule: Q01DX005 (ip), vehicle: saline
  survivor count: 5 of 6

## O=c1c2ccc(Cl)cc2[nH]c2ccc(Cl)cc12
[9]
  survivor count: 2 of 6

## O=Cc1c2ccc(Cl)cc2nc2cc(Cl)ccc12
dose: 100.0 mg/kg/injection, schedule: Q01DX001 (ip), vehicle: saline with Tween-80
  survivor count: 6 of 6
[21]
  survivor count: 6 of 6

## CP(C)c1ccccc1
[20]
  survivor count: 0 of 6

## CCCCCC(C[N+](C)(C)C)C(=O)/C=C/c1ccc(Cl)cc1 (stereo unspecified)
dose: 25.0 mg/kg/injection, schedule: Q01DX001 (ip), vehicle: Klucel (hydroxypropylcellulose) (HPC)
  survivor count: 5 of 6
[14]
  survivor count: 3 of 6
[15]
  survivor count: 1 of 6

## COc1ccc(/C(C#N)=C\c2ccnc3ccccc23)cc1
dose: 100.0 mg/kg/injection, schedule: Q01DX009 (ip), vehicle: other
  survivor count: 3 of 4

## O=c1ccc2cc(-c3ccncc3)cnc2[nH]1
[2]
  survivor count: 1 of 6
[3]
  survivor count: 1 of 6
